Measurements reported in publication PMC4055689.
No constants are given. Whether binding was seen depends on the method and setting. Binding seen in cells or lysates may run through a third protein. Some entries that bind do so weakly or less than the wild type. Where a sequence is shown, tags or fusion partners need not be part of it.

Protein sequences, listed by entry. Tags and fused reporters are not part of them. Lines headed by an entry give the natural chain unless they say otherwise; changes in a name come on top.
UniProt P14867: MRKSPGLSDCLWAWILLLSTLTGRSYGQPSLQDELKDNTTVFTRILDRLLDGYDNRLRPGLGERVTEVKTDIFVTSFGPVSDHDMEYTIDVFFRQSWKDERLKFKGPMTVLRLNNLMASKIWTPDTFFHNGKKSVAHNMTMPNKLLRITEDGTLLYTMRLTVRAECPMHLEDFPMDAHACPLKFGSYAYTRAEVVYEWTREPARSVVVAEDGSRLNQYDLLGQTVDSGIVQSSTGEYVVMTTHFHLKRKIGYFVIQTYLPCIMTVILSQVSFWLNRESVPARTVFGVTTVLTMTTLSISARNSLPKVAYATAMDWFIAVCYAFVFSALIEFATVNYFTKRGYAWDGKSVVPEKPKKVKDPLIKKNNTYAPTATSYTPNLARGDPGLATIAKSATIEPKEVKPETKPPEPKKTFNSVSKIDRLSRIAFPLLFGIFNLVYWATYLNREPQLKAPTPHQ

Target: T1, ASIC1a with HA tag (UniProt P78348)
T1 sequence: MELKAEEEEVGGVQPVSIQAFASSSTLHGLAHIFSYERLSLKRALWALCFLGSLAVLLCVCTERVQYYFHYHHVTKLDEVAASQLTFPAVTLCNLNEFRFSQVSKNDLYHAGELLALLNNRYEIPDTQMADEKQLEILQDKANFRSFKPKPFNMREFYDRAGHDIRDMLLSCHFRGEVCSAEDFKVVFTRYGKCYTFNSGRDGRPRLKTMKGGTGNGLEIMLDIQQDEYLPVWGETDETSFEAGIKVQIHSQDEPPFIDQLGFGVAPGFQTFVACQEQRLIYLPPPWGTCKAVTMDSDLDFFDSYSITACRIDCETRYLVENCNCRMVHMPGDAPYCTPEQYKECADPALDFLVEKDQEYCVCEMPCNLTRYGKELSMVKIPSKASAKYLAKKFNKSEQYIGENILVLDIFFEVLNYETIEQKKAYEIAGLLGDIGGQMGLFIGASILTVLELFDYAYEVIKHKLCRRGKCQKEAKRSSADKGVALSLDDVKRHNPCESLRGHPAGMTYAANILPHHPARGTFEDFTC
Test: co-IP; HEK293 cells transiently co-transfected with HA-ASIC1a and GABAAR α1β2, lysed 36 h after transfection in 1% Triton X-100, 50 mM Tris pH 7.5; precipitated with anti-HA beads, blotted with anti-GABAAR β2

- binding: binds
Substance: GABAA receptor α1β2 (GABAA receptor subunits α1 and β2) (from UniProt P14867 28-456; P47870 26-512) (complex)
